No constants are given. Whether binding was seen depends on the method and setting.

Chains of the proteins cited; added tags and fusions are not shown. Residues count along the entry.
UniProt P63165, residues 1-97: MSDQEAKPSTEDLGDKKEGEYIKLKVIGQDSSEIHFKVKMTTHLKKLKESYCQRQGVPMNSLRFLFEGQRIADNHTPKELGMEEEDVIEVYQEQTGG
UniProt P05161, residues 1-157: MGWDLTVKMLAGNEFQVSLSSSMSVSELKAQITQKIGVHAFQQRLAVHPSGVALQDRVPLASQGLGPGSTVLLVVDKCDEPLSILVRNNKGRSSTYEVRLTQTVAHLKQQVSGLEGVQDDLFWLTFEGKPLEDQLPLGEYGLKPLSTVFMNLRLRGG

For one test, the target named is SUMO1-vinylsulfone (UniProt P63165). The test can be described thus: covalent adduct formation with electrophilic (activity-based) probes, reducing SDS-PAGE and fluorography; only the target purified.
The next test concerns the target ISG15-vinylsulfone (UniProt P05161). The test is described as above.

B1: elaD (wildtype), 35S-methionine-labeled, in vitro translated (enzyme, UniProt Q47013 1-403)
chain: MMVTVVSNYCQLSQTQLSQTFAEKFTVTEELLQSLKKTALSGDEESIELLHNIALGYDKFGKEAEDILYHIVRTPTNETLSIIRLIKNACLKLYNLAHIATNSPLKSHDSDDLLFKKLFSPSKLMTIIGDEIPLISEKQSLSKVLLNDENNELSDGTNFWDKNRQLTTDEIACYLQKIAANAKNTQVNYPTGLYVPYSTRTHLEDALNENIKSDPSWPNEVQLFPINTGGHWILVSLQKIVNKKNNKLQIKCVIFNSLRALGYDKENSLKRVINSFNSELMGEMSNNNIKVHLNEPEIIFLHADLQQYLSQSCGAFVCMAAQEVIEQRESNSDSAPYTLLKNHADRFKKYSAEEQYEIDFQHRLANRNCYLDKYGDANINHYYRNLEIKHSQPKNRASGKRVS
modifications: 35S-methionine label
Turning to B1, the binding result with SUMO1-vinylsulfone and in the test with ISG15-vinylsulfone was “no binding (tested: 0.1 µg of probe)” throughout.
